Results are given in words; binding and its absence hold for the method and conditions named. In cells and extracts the contact can be indirect. Some entries that bind do so weakly or less than the wild type. One block for each substance: values may come before it.
What was measured:
[1] = biological target: USP11 (in vivo Co-IP assay) (UniProt P51784); test: co-IP; in vivo Co-IP assay of USP11 and BIP; cells not given
Myc-tagged USP11 = Myc-tagged USP11 (UniProt P51784); test: co-IP; Myc-tagged USP11 and Flag-tagged BIP co-expressed in HEK293T cells; precipitated in both directions
GST-tagged BIP = GST-tagged BIP (UniProt P11021); test: pull-down; GST pull-down in vitro with bacterially expressed GST-tagged BIP and Flag-tagged USP11
Flag-tagged BIP = Flag-tagged BIP (UniProt P11021); test: co-IP; Myc-tagged USP11 and Flag-tagged BIP co-expressed in HEK293T cells; precipitated in both directions

By UniProt entry, the sequences of proteins in these tests, tags left out. Residues count along the entry.
UniProt P51784: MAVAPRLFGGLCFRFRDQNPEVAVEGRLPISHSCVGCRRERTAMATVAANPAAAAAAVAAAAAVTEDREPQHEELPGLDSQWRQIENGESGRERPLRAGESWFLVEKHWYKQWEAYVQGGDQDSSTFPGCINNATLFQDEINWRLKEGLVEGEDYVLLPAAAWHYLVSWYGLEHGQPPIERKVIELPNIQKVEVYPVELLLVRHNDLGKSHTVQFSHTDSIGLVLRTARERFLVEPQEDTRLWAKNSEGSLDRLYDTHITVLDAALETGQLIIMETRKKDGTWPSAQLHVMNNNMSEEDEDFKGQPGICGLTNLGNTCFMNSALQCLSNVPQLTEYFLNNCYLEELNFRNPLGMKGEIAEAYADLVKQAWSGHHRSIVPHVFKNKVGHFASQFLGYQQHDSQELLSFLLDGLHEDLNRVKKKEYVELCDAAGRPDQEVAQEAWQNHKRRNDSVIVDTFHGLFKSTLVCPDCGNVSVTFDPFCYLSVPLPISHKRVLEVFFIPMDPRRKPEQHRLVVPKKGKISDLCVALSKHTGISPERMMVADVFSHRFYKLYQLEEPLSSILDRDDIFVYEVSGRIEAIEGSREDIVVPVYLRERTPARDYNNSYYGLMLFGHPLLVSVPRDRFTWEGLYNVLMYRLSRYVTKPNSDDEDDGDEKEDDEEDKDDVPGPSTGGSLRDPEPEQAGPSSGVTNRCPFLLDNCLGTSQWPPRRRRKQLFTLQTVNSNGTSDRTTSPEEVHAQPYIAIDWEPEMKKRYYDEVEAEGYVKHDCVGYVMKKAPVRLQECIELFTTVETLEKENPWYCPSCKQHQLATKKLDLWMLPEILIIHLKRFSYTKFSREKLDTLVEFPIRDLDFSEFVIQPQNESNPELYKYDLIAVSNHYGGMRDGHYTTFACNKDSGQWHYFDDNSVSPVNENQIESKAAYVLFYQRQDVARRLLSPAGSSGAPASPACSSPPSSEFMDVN
UniProt P11021, residues 19-654: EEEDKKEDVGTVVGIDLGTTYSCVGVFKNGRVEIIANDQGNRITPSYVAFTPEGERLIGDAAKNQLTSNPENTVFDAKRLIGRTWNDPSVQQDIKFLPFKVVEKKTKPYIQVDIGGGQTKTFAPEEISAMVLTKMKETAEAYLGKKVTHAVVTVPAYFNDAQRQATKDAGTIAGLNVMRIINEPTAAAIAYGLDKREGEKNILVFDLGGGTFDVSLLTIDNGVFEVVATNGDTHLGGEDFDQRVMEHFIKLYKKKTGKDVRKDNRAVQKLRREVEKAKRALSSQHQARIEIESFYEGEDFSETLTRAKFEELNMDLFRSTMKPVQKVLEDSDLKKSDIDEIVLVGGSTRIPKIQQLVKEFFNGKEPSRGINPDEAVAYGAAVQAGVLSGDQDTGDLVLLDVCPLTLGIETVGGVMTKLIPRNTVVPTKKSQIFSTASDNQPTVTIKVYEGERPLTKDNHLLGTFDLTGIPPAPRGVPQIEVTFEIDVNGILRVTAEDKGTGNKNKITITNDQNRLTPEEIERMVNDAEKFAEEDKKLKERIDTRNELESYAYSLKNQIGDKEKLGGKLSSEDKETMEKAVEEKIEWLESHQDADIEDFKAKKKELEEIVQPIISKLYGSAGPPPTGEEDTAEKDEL

binding [1]: binds
Substance: BIP (in vivo Co-IP assay) (from UniProt P11021 19-654)

binding (Myc-tagged USP11): binds
Substance: Flag-tagged BIP (from UniProt P11021 19-654)

binding (GST-tagged BIP): binds
Substance: Flag-tagged USP11 (from UniProt P51784 1-963) (enzyme)

binding (Flag-tagged BIP): binds
Substance: Myc-tagged USP11 (from UniProt P51784 1-963) (enzyme)

— publication PMC8277857
